The supplement of paper PMC10849652
Some of the results follow.

By UniProt entry, the sequences of proteins in these tests, tags left out. Where a name states a change or a piece, a line headed by the entry shows the natural chain unless it says otherwise.
UniProt Q9UPT9: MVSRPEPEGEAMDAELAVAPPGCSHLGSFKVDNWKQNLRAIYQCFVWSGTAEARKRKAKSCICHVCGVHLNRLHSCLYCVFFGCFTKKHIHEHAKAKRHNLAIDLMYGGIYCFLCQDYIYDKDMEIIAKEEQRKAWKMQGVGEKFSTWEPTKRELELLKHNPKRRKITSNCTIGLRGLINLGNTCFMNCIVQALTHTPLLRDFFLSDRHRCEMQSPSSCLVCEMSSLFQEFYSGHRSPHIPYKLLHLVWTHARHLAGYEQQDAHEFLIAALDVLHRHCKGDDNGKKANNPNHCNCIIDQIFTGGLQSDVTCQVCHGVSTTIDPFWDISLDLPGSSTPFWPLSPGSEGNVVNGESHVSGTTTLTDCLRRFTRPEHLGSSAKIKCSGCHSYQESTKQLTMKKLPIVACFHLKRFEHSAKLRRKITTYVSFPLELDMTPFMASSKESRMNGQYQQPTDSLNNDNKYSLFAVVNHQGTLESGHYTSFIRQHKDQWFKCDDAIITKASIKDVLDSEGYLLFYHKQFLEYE
UniProt Q9H1J1: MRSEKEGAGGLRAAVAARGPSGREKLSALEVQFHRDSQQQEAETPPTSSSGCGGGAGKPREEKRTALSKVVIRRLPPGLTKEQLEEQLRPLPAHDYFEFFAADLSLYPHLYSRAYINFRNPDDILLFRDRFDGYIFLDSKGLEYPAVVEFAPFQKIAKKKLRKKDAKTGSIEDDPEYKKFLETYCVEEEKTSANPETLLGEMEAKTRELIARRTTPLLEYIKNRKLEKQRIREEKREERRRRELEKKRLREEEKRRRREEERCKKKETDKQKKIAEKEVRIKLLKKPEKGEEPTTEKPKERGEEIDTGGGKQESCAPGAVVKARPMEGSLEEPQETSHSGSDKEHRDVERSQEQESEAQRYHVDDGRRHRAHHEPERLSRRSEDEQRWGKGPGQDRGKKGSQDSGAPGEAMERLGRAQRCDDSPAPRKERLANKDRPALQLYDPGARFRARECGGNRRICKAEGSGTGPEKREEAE
UniProt Q04323: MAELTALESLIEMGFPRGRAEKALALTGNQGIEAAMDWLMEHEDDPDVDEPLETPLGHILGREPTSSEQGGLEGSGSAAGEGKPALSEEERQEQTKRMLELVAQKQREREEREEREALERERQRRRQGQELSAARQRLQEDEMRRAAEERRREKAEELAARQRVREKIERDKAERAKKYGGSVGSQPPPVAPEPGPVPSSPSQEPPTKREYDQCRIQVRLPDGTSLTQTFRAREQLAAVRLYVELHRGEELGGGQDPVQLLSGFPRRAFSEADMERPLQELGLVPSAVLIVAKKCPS
UniProt Q70CQ3: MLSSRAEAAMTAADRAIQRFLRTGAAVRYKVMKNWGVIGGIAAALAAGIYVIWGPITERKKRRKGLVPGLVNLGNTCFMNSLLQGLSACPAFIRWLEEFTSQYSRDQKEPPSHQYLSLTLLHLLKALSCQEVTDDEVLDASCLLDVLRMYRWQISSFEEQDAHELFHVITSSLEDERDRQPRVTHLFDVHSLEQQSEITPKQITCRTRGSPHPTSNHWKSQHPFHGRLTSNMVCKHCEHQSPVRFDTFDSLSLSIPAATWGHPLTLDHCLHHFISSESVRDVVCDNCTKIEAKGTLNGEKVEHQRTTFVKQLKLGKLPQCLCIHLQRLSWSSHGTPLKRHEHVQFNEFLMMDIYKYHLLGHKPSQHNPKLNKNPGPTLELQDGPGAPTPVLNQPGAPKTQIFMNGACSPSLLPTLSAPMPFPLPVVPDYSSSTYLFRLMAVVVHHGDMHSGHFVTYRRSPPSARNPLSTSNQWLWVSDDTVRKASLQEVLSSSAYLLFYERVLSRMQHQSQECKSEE
UniProt Q5TAP6: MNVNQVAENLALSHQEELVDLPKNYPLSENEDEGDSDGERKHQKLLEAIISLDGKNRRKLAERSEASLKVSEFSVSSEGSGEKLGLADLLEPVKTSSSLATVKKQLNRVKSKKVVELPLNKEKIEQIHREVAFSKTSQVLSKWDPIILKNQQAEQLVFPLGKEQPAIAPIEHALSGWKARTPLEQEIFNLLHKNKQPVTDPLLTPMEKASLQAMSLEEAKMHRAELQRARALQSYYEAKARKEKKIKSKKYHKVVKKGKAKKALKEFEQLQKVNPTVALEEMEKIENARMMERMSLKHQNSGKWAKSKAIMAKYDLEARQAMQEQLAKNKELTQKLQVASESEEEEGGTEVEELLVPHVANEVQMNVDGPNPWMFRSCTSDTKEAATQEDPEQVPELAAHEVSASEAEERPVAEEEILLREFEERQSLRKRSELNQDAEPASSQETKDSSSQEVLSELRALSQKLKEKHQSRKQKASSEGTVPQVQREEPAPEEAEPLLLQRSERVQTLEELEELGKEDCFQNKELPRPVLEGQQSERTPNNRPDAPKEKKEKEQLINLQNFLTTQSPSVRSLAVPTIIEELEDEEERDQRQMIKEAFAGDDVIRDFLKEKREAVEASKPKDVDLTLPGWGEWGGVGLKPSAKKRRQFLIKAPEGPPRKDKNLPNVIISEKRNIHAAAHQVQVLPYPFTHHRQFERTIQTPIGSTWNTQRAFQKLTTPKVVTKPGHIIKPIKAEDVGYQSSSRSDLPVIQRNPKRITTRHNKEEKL
UniProt P63027, whole entry, looked up: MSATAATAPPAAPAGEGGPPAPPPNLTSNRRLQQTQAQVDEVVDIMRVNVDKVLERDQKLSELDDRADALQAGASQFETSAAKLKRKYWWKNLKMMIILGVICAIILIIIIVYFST
UniProt Q8WVY7: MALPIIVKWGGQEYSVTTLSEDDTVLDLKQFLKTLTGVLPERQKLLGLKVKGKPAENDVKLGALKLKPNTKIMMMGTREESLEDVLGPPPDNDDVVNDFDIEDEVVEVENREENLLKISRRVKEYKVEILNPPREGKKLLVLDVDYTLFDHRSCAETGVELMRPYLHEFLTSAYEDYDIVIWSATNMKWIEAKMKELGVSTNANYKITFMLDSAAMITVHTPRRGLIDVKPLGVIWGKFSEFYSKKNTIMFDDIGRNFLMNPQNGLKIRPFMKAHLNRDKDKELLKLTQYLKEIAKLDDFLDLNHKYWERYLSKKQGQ
UniProt Q13107: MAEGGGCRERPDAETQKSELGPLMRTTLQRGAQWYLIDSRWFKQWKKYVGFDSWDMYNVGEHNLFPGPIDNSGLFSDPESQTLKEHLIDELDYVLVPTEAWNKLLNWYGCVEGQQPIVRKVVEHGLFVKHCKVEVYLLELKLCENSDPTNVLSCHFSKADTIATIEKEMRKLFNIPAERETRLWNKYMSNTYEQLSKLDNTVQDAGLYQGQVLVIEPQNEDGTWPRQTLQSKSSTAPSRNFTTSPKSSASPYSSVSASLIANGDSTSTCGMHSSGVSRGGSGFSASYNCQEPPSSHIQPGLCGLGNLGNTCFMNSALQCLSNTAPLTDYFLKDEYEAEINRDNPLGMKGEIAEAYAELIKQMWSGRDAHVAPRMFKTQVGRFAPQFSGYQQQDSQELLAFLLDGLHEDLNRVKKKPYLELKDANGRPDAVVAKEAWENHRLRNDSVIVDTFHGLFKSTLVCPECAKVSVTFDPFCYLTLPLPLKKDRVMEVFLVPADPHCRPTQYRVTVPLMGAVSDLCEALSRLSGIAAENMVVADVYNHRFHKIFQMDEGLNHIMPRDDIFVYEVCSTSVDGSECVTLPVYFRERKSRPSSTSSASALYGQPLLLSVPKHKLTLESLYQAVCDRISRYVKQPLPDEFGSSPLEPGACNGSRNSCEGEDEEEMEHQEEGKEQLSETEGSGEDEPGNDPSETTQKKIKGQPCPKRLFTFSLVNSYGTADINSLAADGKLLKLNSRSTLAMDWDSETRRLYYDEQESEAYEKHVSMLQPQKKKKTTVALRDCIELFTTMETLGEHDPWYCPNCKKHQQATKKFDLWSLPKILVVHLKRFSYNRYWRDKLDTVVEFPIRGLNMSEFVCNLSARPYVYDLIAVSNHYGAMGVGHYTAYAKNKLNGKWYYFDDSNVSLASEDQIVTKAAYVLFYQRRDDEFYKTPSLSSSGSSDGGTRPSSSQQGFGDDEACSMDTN
UniProt Q9NYU2: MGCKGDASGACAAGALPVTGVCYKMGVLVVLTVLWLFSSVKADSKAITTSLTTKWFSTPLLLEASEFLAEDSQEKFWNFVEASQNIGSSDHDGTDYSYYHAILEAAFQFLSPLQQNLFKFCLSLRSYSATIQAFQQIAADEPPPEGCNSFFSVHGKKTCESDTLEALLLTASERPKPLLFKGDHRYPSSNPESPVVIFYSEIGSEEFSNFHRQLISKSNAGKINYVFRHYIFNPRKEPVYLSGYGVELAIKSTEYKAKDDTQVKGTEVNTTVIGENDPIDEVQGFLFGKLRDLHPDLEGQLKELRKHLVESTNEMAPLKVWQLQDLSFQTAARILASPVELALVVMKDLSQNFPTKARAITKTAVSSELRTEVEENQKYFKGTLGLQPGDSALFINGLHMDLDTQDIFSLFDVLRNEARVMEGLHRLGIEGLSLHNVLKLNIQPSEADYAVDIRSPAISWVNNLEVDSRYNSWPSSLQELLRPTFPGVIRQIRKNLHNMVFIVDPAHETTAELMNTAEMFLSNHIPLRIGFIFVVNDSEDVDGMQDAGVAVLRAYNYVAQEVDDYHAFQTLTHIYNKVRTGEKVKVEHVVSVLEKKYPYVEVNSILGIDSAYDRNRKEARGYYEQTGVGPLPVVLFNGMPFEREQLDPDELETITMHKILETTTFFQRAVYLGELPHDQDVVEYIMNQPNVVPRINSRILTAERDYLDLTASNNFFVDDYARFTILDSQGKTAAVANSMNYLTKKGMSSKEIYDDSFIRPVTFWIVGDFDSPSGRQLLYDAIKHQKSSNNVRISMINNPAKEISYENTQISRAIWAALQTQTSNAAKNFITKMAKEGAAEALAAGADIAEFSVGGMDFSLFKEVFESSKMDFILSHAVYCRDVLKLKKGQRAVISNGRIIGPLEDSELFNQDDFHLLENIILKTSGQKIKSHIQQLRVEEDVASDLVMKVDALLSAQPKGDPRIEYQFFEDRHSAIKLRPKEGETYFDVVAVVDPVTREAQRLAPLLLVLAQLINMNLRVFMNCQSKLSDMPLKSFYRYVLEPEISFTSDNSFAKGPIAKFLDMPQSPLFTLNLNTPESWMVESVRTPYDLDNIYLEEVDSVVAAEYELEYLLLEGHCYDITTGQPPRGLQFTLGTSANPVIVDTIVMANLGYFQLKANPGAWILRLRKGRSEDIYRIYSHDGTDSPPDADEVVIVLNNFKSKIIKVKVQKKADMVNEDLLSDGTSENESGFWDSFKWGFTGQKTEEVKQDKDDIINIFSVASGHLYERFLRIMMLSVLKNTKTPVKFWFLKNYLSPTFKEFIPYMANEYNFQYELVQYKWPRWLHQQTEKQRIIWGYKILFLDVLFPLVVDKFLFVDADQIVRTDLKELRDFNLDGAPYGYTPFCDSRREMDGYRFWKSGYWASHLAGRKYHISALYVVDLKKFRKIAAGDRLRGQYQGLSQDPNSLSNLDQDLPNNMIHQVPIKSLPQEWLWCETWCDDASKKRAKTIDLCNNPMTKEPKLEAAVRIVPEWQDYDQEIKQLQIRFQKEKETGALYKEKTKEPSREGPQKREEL
UniProt P07919: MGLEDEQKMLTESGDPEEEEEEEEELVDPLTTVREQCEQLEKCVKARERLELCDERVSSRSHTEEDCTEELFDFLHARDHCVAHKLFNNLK
UniProt O60763: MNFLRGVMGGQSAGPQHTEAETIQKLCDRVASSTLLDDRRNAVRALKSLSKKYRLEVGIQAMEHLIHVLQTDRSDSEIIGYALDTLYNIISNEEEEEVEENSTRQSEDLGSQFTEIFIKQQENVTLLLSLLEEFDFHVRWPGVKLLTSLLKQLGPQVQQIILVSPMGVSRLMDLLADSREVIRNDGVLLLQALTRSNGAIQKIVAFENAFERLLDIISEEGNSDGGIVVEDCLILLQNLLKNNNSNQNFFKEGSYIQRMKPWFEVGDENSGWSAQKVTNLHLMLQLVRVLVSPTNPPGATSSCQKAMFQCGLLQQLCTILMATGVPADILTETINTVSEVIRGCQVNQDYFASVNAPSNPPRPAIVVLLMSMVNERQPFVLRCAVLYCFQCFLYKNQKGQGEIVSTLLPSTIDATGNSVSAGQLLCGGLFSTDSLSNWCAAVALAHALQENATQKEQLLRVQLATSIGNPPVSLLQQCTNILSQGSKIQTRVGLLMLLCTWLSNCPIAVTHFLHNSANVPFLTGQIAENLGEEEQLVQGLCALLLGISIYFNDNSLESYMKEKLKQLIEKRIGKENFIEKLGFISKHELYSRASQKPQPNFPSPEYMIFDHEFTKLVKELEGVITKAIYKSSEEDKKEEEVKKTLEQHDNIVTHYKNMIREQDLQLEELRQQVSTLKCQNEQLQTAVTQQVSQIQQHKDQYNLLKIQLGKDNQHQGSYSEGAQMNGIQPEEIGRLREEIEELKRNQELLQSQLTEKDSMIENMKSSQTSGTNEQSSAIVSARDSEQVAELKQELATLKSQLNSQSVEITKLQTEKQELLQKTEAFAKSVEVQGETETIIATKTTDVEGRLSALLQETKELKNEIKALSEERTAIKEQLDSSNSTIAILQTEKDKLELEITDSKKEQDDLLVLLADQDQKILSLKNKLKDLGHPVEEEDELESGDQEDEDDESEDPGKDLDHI

Legend:
Assay in all cases: log2 fold change, soluble protein after heating vs DMSO (PISA); higher = thermal stabilisation; K562 cells, 10 uM, 30 min; active = over 0.2 and 3.5 SD of the protein, either way, in both replicates (recomputed)
[1] = compound: COC1=CC=C(C=C1)CN2C=CC3=C2C=C(C=C3)C(=O)NO
Outline: (§1)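 Values are thermal stability changes relative to control samples and are taken from duplicates. They are stated as log2 fold changes. Before quantification by TMTpro 16plex LC-MS/MS with equalised channel sums, K562 cells at 2×10^6 cells/mL were treated with 10 μM compound for 30 min, heated in aliquots for 3 min across 48°C-58°C, pooled, extracted in PBS with 0.5% NP-40 at 4°C, and centrifuged at 21,000xg for 90 min to give the soluble supernatant.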

filanesib = compound: CON(C)C(=O)N1N=C(c2cc(F)ccc2F)S[C@@]1(CCCN)c1ccccc1 [filanesib]
Outline: as §1

zotarolimus = compound: CO[C@H]1C[C@@H]2CC[C@@H](C)[C@@](O)(O2)C(=O)C(=O)N2CCCC[C@H]2C(=O)O[C@H]([C@H](C)C[C@@H]2CC[C@H](n3cnnn3)[C@H](OC)C2)CC(=O)[C@H](C)/C=C(\C)[C@@H](O)[C@@H](OC)C(=O)[C@H](C)C[C@H](C)/C=C/C=C/C=C/1C [zotarolimus]
Outline: as §1

idasanutlin = compound: COc1cc(C(=O)O)ccc1NC(=O)[C@@H]1N[C@@H](CC(C)(C)C)[C@](C#N)(c2ccc(Cl)cc2F)[C@H]1c1cccc(Cl)c1F [idasanutlin]
Outline: as §1

alisertib = compound: COc1cc(Nc2ncc3c(n2)-c2ccc(Cl)cc2C(c2c(F)cccc2OC)=NC3)ccc1C(=O)O [alisertib]
Outline: as §1

[2] = compound: COc1cc2nc(-c3cc(F)ccc3O)nc(N[C@@H]3CNC[C@H]3C(C)(C)O)c2cc1OC
Outline: as §1

gefitinib = compound: COc1cc2ncnc(Nc3ccc(F)c(Cl)c3)c2cc1OCCCN1CCOCC1 [gefitinib]
Outline: as §1

[3] = compound: COc1cccc2cc(-c3nc([C@H]4CC[C@H](C(=O)O)CC4)n4ncnc(N)c34)[nH]c12
Outline: as §1

lapatinib = compound: CS(=O)(=O)CCNCc1ccc(-c2ccc3ncnc(Nc4ccc(OCc5cccc(F)c5)c(Cl)c4)c3c2)o1 [lapatinib]
Outline: as §1

pictilisib = compound: CS(=O)(=O)N1CCN(Cc2cc3nc(-c4cccc5[nH]ncc45)nc(N4CCOCC4)c3s2)CC1 [pictilisib]
Outline: as §1

Measured: log2 fold change

USP25 isoform 3 (UniProt Q9UHP3)
inactive: [1] -0.011 | filanesib 0.037 | zotarolimus 0.014 | idasanutlin -0.039 | alisertib 0.027 | [2] 0.004 | gefitinib 0.032 | [3] 0.022 | lapatinib 0.001 | pictilisib 0.018

USP22 (UniProt Q9UPT9)
inactive: [1] 0.074 | filanesib 0.03 | zotarolimus 0.023 | idasanutlin -0.053 | alisertib -0.109 | [2] 0.091 | gefitinib -0.083 | [3] -0.05 | lapatinib -0.117

USP3 (UniProt Q9Y6I4)
inactive: [1] 0.131 | filanesib -0.246 | zotarolimus 0.009 | idasanutlin -0.039 | alisertib 0.085 | [2] -0.201 | gefitinib -0.007 | [3] -0.014 | lapatinib 0.053 | pictilisib 0.027

USP15 (UniProt Q9Y4E8)
inactive: [1] 0.027 | filanesib -0.004 | zotarolimus 0.051 | idasanutlin -0.018 | alisertib -0.043 | [2] 0.016 | gefitinib 0.028 | [3] -0.05 | lapatinib -0.021 | pictilisib -0.027

UXS1 isoform 2 (UniProt Q8NBZ7)
inactive: [1] -0.084 | filanesib -0.004 | zotarolimus -0.013 | idasanutlin -0.033 | alisertib -0.031 | [2] -0.053 | gefitinib 0.006 | [3] 0.134 | lapatinib 0.121

UTP14A (UniProt Q9BVJ6)
inactive: [1] -0.114 | filanesib 0.336 | zotarolimus -0.022 | idasanutlin 0.161 | alisertib -0.077 | [2] -0.111 | gefitinib -0.062 | [3] -0.138 | lapatinib 0.156 | pictilisib -0.174

UPF3A (UniProt Q9H1J1)
inactive: [1] -0.129 | filanesib 0.439

UNC45A (UniProt Q9H3U1)
inactive: [1] 0.038 | filanesib 0.069 | zotarolimus 0.042 | idasanutlin -0.024 | alisertib -0.133 | [2] 0.041 | gefitinib 0.003 | [3] -0.197 | lapatinib -0.009 | pictilisib -0.006

UQCRC1 (UniProt P31930)
inactive: [1] -0.013 | filanesib -0.063 | zotarolimus -0.009 | idasanutlin -0.022 | alisertib -0.095 | [2] 0.044 | gefitinib 0.011 | [3] 0.041 | lapatinib -0.017 | pictilisib -0.011

UBXN1 (UniProt Q04323)
inactive: [1] -0.04 | filanesib -0.023 | zotarolimus 0.019 | idasanutlin 0.022 | alisertib 0.037 | [2] 0.041 | gefitinib -0.008 | [3] 0 | lapatinib -0.053 | pictilisib -0.057

USP30 (UniProt Q70CQ3)
inactive: [1] 0.019 | filanesib -0.024 | zotarolimus 0.001 | idasanutlin 0.006 | alisertib -0.332 | [2] -0.026 | gefitinib 0.024 | [3] -0.046 | lapatinib 0.019

UCKL1 (UniProt Q9NWZ5)
inactive: [1] -0.05 | filanesib -0.064 | zotarolimus -0.028 | idasanutlin -0.126 | alisertib -0.053 | [2] 0.138 | gefitinib 0.028 | [3] 0.066 | lapatinib -0.06 | pictilisib 0.053

USP20 (UniProt Q9Y2K6)
inactive: [1] 0.056 | filanesib 0.021 | zotarolimus -0.078 | idasanutlin -0.105 | alisertib 0.077 | [2] -0.182 | gefitinib 0.063 | [3] -0.229 | lapatinib 0.052

UTP14C (UniProt Q5TAP6)
inactive: [1] 0.122 | filanesib -0.056

USP13 (UniProt Q92995)
inactive: [1] -0.046 | filanesib -0.017 | zotarolimus 0.021 | idasanutlin 0.001 | alisertib 0.003 | [2] -0.226 | gefitinib 0.044 | [3] 0.033 | lapatinib 0.169

UBL7 (UniProt Q96S82)
inactive: [1] 0.012 | filanesib 0.114 | zotarolimus 0.047 | idasanutlin 0 | alisertib -0.048 | [2] -0.043 | gefitinib -0.027 | [3] 0.036 | lapatinib 0.016 | pictilisib -0.127

VAMP2 (UniProt P63027)
inactive: [1] 0.24 | filanesib -0.072 | zotarolimus 0.094 | idasanutlin -0.033 | alisertib -0.052 | [2] -0.224 | gefitinib 0.036 | [3] -0.017 | lapatinib 0.062 | pictilisib -0.039

Quoted from the listing (two entries):
UBL7 (UniProt Q96S82)
inactive: [1] 0.012 | filanesib 0.114 | zotarolimus 0.047 | idasanutlin 0 | alisertib -0.048 | [2] -0.043 | gefitinib -0.027 | [3] 0.036 | lapatinib 0.016 | pictilisib -0.127

VAMP2 (UniProt P63027)
inactive: [1] 0.24 | filanesib -0.072 | zotarolimus 0.094 | idasanutlin -0.033 | alisertib -0.052 | [2] -0.224 | gefitinib 0.036 | [3] -0.017 | lapatinib 0.062 | pictilisib -0.039

Remaining list, next part

USP48 isoform 8 (UniProt Q86UV5)
inactive: [1] 0.155 | filanesib -0.075 | zotarolimus 0.089 | idasanutlin -0.03 | alisertib 0.12 | [2] -0.267 | gefitinib 0.093 | [3] -0.018 | lapatinib 0.002 | pictilisib 0.016

VASP (UniProt P50552)
inactive: [1] 0.009 | filanesib 0.04 | zotarolimus 0.09 | idasanutlin -0.018 | alisertib 0.011 | [2] 0.118 | gefitinib 0.075 | [3] -0.067 | lapatinib -0.065 | pictilisib 0.024

VARS (UniProt P26640)
inactive: [1] 0.008 | filanesib 0.024 | zotarolimus 0.035 | idasanutlin -0.033 | alisertib -0.072 | [2] 0.05 | gefitinib -0.004 | [3] -0.059 | lapatinib 0.004 | pictilisib 0.032

USE1 (UniProt Q9NZ43)
inactive: [1] -0.028 | filanesib 0.002 | zotarolimus -0.068 | idasanutlin -0.002 | alisertib -0.124 | [2] 0.015 | gefitinib 0.009 | [3] -0.087 | lapatinib 0.041 | pictilisib -0.008

UCHL5 (UniProt Q9Y5K5)
inactive: [1] 0.023 | filanesib -0.035 | zotarolimus 0.026 | idasanutlin -0.044 | alisertib -0.048 | [2] 0.04 | gefitinib 0.008 | [3] -0.031 | lapatinib -0.023 | pictilisib 0.012

UBLCP1 (UniProt Q8WVY7)
inactive: [1] -0.046 | filanesib -0.001 | zotarolimus -0.008 | idasanutlin -0.013 | alisertib 0.028 | [2] 0.181 | gefitinib 0.044 | [3] -0.034 | lapatinib 0.021 | pictilisib 0.028

VBP1 (UniProt P61758)
inactive: [1] -0.087 | filanesib -0.02 | zotarolimus -0.041 | idasanutlin 0.01 | alisertib 0.001 | [2] 0.005 | gefitinib 0.001 | [3] 0.036 | lapatinib -0.005 | pictilisib 0.005

UPRT (UniProt Q96BW1)
inactive: [1] -0.027 | filanesib -0.075 | zotarolimus 0.022 | idasanutlin 0.084 | alisertib -0.032 | [2] 0.044 | gefitinib 0.099 | [3] 0.043 | lapatinib 0.02 | pictilisib 0.066

UBE4B isoform 4 (UniProt O95155)
inactive: [1] 0.04 | filanesib -0.009 | zotarolimus -0.008 | idasanutlin -0.031 | alisertib -0.035 | [2] 0.021 | gefitinib -0.048 | [3] 0.021 | lapatinib -0.01 | pictilisib 0.063

USP4 (UniProt Q13107)
inactive: [1] -0.053

UCHL3 (UniProt P15374)
inactive: [1] 0.003 | filanesib -0.038 | zotarolimus 0.077 | idasanutlin -0.063 | alisertib -0.094 | [2] -0.013 | gefitinib -0.011 | [3] 0.044 | lapatinib 0.037 | pictilisib 0.026

UGGT1 (UniProt Q9NYU2)
inactive: [1] -0.041 | filanesib -0.008 | zotarolimus 0.012 | idasanutlin -0.014 | alisertib -0.07 | [2] 0.009 | gefitinib -0.006 | [3] -0.01 | lapatinib 0.035 | pictilisib -0.005

UQCRH (UniProt P07919)
inactive: [1] -0.096 | filanesib 0.023 | zotarolimus -0.104 | idasanutlin 0.018 | alisertib 0.098 | [2] 0.034 | gefitinib -0.02 | [3] -0.016 | lapatinib -0.167 | pictilisib -0.052

USO1 isoform 2 (UniProt O60763)
inactive: [1] 0.009 | filanesib -0.054 | zotarolimus 0.034 | idasanutlin -0.054 | alisertib -0.037 | [2] -0.031 | gefitinib 0.003 | [3] 0.01 | lapatinib 0.016 | pictilisib 0.014

UQCC1 (UniProt Q9NVA1)
inactive: [1] -0.006 | filanesib -0.023 | zotarolimus 0.035 | idasanutlin -0.017 | alisertib 0.019 | [2] -0.113 | gefitinib -0.003 | [3] 0.018 | lapatinib 0.014 | pictilisib 0.047
